The values below come from patent US8975384B2, “Tag peptide and use thereof” (Osaka University, priority 2008, dated 2015).

The subject of the series is P20.1 antibody-Sepharose. As to the kind of experiment: Pull-down efficiency with P20.1 antibody-immobilized beads. It is filed as binding, mouse. The conditions noted are these: HEK293T culture supernatant, sandwich ELISA. As to the method:
Three different hGH-γC-P4 fusion proteins, which have P4×1, P4×3 or P4×5, were separately expressed in HEK293T cells. The fusion protein in the separate cell culture supernatant was quantified by the sandwich ELISA (which adopts a system of hGH antibody-mediated capture+anti-BAS serum-mediated detection, and is not dependent on the responsiveness to the P20.1 antibody) (before pull-down). Aside from this, to 1 mL of the cell culture supernatant, 20 μL of the P20.1 antibody-Sepharose (bead form) was added, and then the mixture was allowed to react at 4° C. for 1 hour. After the beads were precipitated by centrifugation, the fusion protein in the supernatant was quantified by the sandwich ELISA (which adopts a system of hGH antibody-mediated capture+anti-BAS serum-mediated detection, and is not dependent on the responsiveness to the P20.1 antibody) (after pull-down). The fusion protein purified with Ni-NTA agarose was used as a standard, and based on the standard curve, the fusion protein concentrations before and after pull-down by the P20.1 antibody were determined. As is clear from Table 4, 3 to 5 repeats of the P4 sequence achieves the binding efficiency of about 80%.
As for “P4 × 3: hGH/fibrinogen γC fusion protein tagged with 3 repeats of the P4 sequence GYPGQV”, the “Fusion protein Before pull-down” value amounted to 0.98 µg/mL.

For “P4 × 5: hGH/fibrinogen γC fusion protein tagged with 5 repeats of the P4 sequence GYPGQV”, the “Fusion protein Before pull-down” value was 0.85 µg/mL. For “P4: hGH/fibrinogen γC fusion protein tagged with 1 repeat of the P4 sequence GYPGQV” the value was 0.7 µg/mL.
